# Experimental data: the supplement of paper PMC10735217
# Where a name gives a salt, the structure may show the parent alone. The list shows a part of the results. Single values are uncertain here, since repeats match poorly.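 In a drug-repurposing library screen, luminescence reads luciferase driven by eight TEAD-binding elements, stably integrated into human kidney-derived cells. Compounds scoring over five robust Z scores above the plate mean are called hits.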
# System: HEK293A TEAD-LUC reporter
# Assay: TEAD-luciferase reporter activity (YAP activation), robust Z score vs plate; higher = stronger YAP/TEAD activation
# Settings: 24 h
Structure (SMILES),TEAD-luciferase reporter activity (compound concentration: 200 nM),TEAD-luciferase reporter activity (compound concentration: 2 uM),TEAD-luciferase reporter activity (compound concentration: 10 uM)
CCC(C(=O)OCCN(CC)CC)c1ccccc1 (stereo unspecified),inactive: -1.28,inactive: 0.739,inactive: -0.777
CN1C2CCC1CC(OC(=O)c1c[nH]c3ccccc13)C2 (stereo unspecified) [Tropisetron Hydrochloride],inactive: 0.583,inactive: 3.69,inactive: 0.357
CN1C2CCC1CC(OC(=O)c1c[nH]c3ccccc13)C2 (stereo unspecified),,inactive: 3.53,
CC[N+](CC)(CC)CCOc1ccc(/C=C/c2ccccc2)cc1,inactive: -0.461,inactive: -1.1,inactive: 0.784
CC(=O)N1CCN(S(=O)(=O)c2cccc(C(=O)Nc3cc(C)nc4c(F)cc(F)cc34)c2)CC1,inactive: -0.825,inactive: -0.53,inactive: -2.21
COc1cccc(CCNC(=O)C2(c3ccc(Cl)cc3)CCOCC2)c1,inactive: 0.318,,inactive: 1.36
CCCC(=O)N1Cc2ccccc2CC2(CCCCN2C)C1 (stereo unspecified),inactive: -2.17,,inactive: 3.81
C/C(CC(=O)OC(C)(C)C)=N\Nc1ccc(N2CCOCC2)nn1,inactive: -1.9,inactive: 1.08,inactive: 1.08
CC(C)[C@H]1CC[C@H](C(=O)N[C@H](Cc2ccccc2)C(=O)O)CC1 [nateglinide],,inactive: 2.41,
CC(C)[C@H]1CC[C@H](C(=O)N[C@H](Cc2ccccc2)C(=O)O)CC1,inactive: -0.656,,inactive: -2.43
N=c1ccn2c(n1)O[C@H]1[C@H](O)[C@@H](CO)O[C@H]12 [Ancitabine hydrochloride],inactive: -0.012,inactive: -1.7,inactive: -1.58
Cc1nnc(-c2cc3c(OC[C@@H](O)CN4CCC(c5ccc(Cl)c(Cl)c5)CC4)cccc3o2)o1,inactive: 0.917,inactive: -0.222,inactive: -0.325
CC(C)[N+]1(C)[C@@H]2CC[C@H]1C[C@@H](OC(=O)C(CO)c1ccccc1)C2 (stereo partly specified) [ipratropium bromide],inactive: 0.957,inactive: 2.83,inactive: 1.4
COc1ccc(NC(=O)c2ccc(C(=N)N(C)C)cc2)c(C(=O)Nc2ccc(Cl)cn2)c1 [Betrixaban],inactive: 1.01,inactive: 1.46,inactive: -0.972
CCCOC(C(=O)OC1CCN(C)CC1)(c1ccccc1)c1ccccc1 [propiverine hydrochloride],inactive: 1.21,,inactive: -0.922
CCCOC(C(=O)OC1CCN(C)CC1)(c1ccccc1)c1ccccc1 [propiverine hydrochloride ER],,inactive: 1.67,
O=C(NCc1ccc(F)cc1)c1nc(N2CCCCS2(=O)=O)c2cccnc2c1O,inactive: -1.06,inactive: -0.0946,inactive: -0.162
CC(c1cccc(O)c1)C1CCCN(C)C1 (stereo unspecified),inactive: 0.249,inactive: -1.52,inactive: -0.811
OCCNCCOc1ccc(/C(=C(\c2ccccc2)C(F)(F)F)c2ccccc2)cc1,inactive: -0.0912,inactive: -0.832,inactive: 0.2

# Nothing new here: entries from further up.
Structure (SMILES),TEAD-luciferase reporter activity (compound concentration: 200 nM),TEAD-luciferase reporter activity (compound concentration: 2 uM),TEAD-luciferase reporter activity (compound concentration: 10 uM)
CN1C2CCC1CC(OC(=O)c1c[nH]c3ccccc13)C2 (stereo unspecified) [Tropisetron Hydrochloride],inactive: 0.583,inactive: 3.69,inactive: 0.357
CN1C2CCC1CC(OC(=O)c1c[nH]c3ccccc13)C2 (stereo unspecified),,inactive: 3.53,
CC[N+](CC)(CC)CCOc1ccc(/C=C/c2ccccc2)cc1,inactive: -0.461,inactive: -1.1,inactive: 0.784
CC(=O)N1CCN(S(=O)(=O)c2cccc(C(=O)Nc3cc(C)nc4c(F)cc(F)cc34)c2)CC1,inactive: -0.825,inactive: -0.53,inactive: -2.21
COc1cccc(CCNC(=O)C2(c3ccc(Cl)cc3)CCOCC2)c1,inactive: 0.318,,inactive: 1.36
CCCC(=O)N1Cc2ccccc2CC2(CCCCN2C)C1 (stereo unspecified),inactive: -2.17,,inactive: 3.81
C/C(CC(=O)OC(C)(C)C)=N\Nc1ccc(N2CCOCC2)nn1,inactive: -1.9,inactive: 1.08,inactive: 1.08
CC(C)[C@H]1CC[C@H](C(=O)N[C@H](Cc2ccccc2)C(=O)O)CC1 [nateglinide],,inactive: 2.41,
CC(C)[C@H]1CC[C@H](C(=O)N[C@H](Cc2ccccc2)C(=O)O)CC1,inactive: -0.656,,inactive: -2.43
N=c1ccn2c(n1)O[C@H]1[C@H](O)[C@@H](CO)O[C@H]12 [Ancitabine hydrochloride],inactive: -0.012,inactive: -1.7,inactive: -1.58
Cc1nnc(-c2cc3c(OC[C@@H](O)CN4CCC(c5ccc(Cl)c(Cl)c5)CC4)cccc3o2)o1,inactive: 0.917,inactive: -0.222,inactive: -0.325
CC(C)[N+]1(C)[C@@H]2CC[C@H]1C[C@@H](OC(=O)C(CO)c1ccccc1)C2 (stereo partly specified) [ipratropium bromide],inactive: 0.957,inactive: 2.83,inactive: 1.4
COc1ccc(NC(=O)c2ccc(C(=N)N(C)C)cc2)c(C(=O)Nc2ccc(Cl)cn2)c1 [Betrixaban],inactive: 1.01,inactive: 1.46,inactive: -0.972
CCCOC(C(=O)OC1CCN(C)CC1)(c1ccccc1)c1ccccc1 [propiverine hydrochloride],inactive: 1.21,,inactive: -0.922
CCCOC(C(=O)OC1CCN(C)CC1)(c1ccccc1)c1ccccc1 [propiverine hydrochloride ER],,inactive: 1.67,
O=C(NCc1ccc(F)cc1)c1nc(N2CCCCS2(=O)=O)c2cccnc2c1O,inactive: -1.06,inactive: -0.0946,inactive: -0.162

# Next part.

Structure (SMILES),TEAD-luciferase reporter activity (compound concentration: 200 nM),TEAD-luciferase reporter activity (compound concentration: 2 uM),TEAD-luciferase reporter activity (compound concentration: 10 uM)
Cc1nnc(NS(=O)(=O)c2ccc(N)cc2)s1,inactive: -1.46,inactive: 0.204,inactive: 0.109
CCCCN1CCC(CNC(=O)c2c3n(c4ccccc24)CCCO3)CC1 [Piboserod hydrochloride],inactive: -0.522,inactive: -1.14,inactive: 3.74
COc1ccc([C@H](O)CN2CCN(c3cccccc3=O)CC2)cc1OC,inactive: -1.34,inactive: 2.56,inactive: -0.415
Cc1cc(CO)nc2cc3c(cc12)OC(C)(C)[C@H](O)[C@H]3NCCc1ccccc1,inactive: -0.0145,inactive: -0.766,inactive: -0.907
Nc1ncnc2c1ncn2C1OC(COP(=O)(O)O)C(O)C1O (stereo unspecified) [vidarabine sodium phosphate],inactive: -1.94,inactive: 2.01,inactive: -0.122
O=C1Nc2c(Cl)ccc(O[C@H]3C[C@H](C(=O)O)C3)c2C2(CCCCC2)N1,inactive: -0.833,inactive: 1.05,active: 6.28
COC[C@H]1CN(c2ccc(OCCC(O)C(F)(F)F)cc2)C(=O)O1 (stereo partly specified),inactive: 0.268,inactive: -0.176,inactive: 0.354
Cc1cn(C2C=CC(CO)O2)c(=O)[nH]c1=O (stereo unspecified),inactive: -0.969,,inactive: 1.51
Cc1cn(C2C=CC(CO)O2)c(=O)[nH]c1=O (stereo unspecified) [stavudine],,inactive: 1.23,
O=C(O)CCc1nc2ccccc2[nH]1 [procodazol],inactive: -0.0815,inactive: -0.664,inactive: -0.29
CC[C@H]1OC(=O)[C@H](C)C(=O)[C@H](C)[C@@H](OC2O[C@H](C)C[C@H](N(C)C)[C@H]2O)[C@@](C)(OC)C[C@@H](C)C(=O)[C@@H](C)[C@H]2N(CCCCn3cnc(-c4cccnc4)c3)C(=O)O[C@]12C (stereo partly specified) [Telithromycin],inactive: -1.07,inactive: -1.6,inactive: 0.0781
O=C(CC1CCN(CCOc2cccc3c2OCCO3)C1)c1ccc(F)cc1 (stereo unspecified),inactive: 1.15,inactive: -1.05,inactive: 2.14
O=C(O)Cc1cscc1Nc1c(Cl)cccc1Cl [Eltenac],inactive: 0.552,inactive: -1.83,inactive: 0.914
CN1CCN(C2=Nc3ccccc3Sc3ccc(Cl)cc32)CC1 [Clotiapine],,inactive: -2.19,
CN1CCN(C2=Nc3ccccc3Sc3ccc(Cl)cc32)CC1 [Clothiapine],inactive: -0.597,,inactive: 1.15
COc1ccccc1N1CCN(CC(O)COc2cccc3ccccc23)CC1 (stereo unspecified),inactive: -1.74,,inactive: 4.47
COc1ccccc1N1CCN(CC(O)COc2cccc3ccccc23)CC1 (stereo unspecified) [naftopidil],,inactive: -0.106,
CCCN(CCC)C(=O)C1=Cc2ccc(-c3ccc(C(=O)N4CCCC4)cc3)cc2NC(N)=C1 [Motolimod],,inactive: 0.652,
C#CC1(O)CCC2[C@@H]3CCc4cc(O)cc(C)c4C3CC[C@@]21C (stereo partly specified) [1-Methyl ethynyl estradiol],inactive: 3.76,inactive: 1.04,inactive: 0.919

Structure (SMILES),TEAD-luciferase reporter activity (compound concentration: 200 nM),TEAD-luciferase reporter activity (compound concentration: 2 uM),TEAD-luciferase reporter activity (compound concentration: 10 uM)
COc1ccc(F)cc1C[C@@](O)(C1CCOCC1)[C@@H]1CNCCO1 [Edivoxetine HCl],inactive: -1.36,,inactive: -0.626
O=C(O)c1nn(-c2ccc(S(=O)(=O)O)cc2)c(O)c1/N=N/c1ccc(S(=O)(=O)O)cc1,inactive: -2.42,inactive: -0.608,inactive: -0.56
C=C1CC[C@H](O)C/C1=C/C=C1\CCC[C@]2(C)[C@@H]([C@H](C)CCCC(C)C)CC[C@@H]12 [Cholecalciferol],inactive: -0.75,inactive: 0.276,inactive: 4.19
CC1(C)[C@@H](OC(=O)CCC(=O)O)CC[C@]2(C)C3=CC[C@@H]4[C@@H]5C[C@@](C)(C(=O)O)CC[C@]5(C)CC[C@@]4(C)[C@]3(C)CC[C@@H]12,inactive: -0.52,inactive: 1.66,inactive: -0.204
O=C(O)C1CSC(c2ccccc2O)N1C(=O)CCS (stereo unspecified),inactive: -0.811,inactive: -0.715,inactive: -0.435
CSc1ccccc1N(Cc1ccc(C(F)(F)F)cc1)C(=O)CN(CCN(C)C)C(=O)OCC(C)C [flosatidil],inactive: -0.704,inactive: 3.58,inactive: 2.79
CC(N/C(=N/C#N)Nc1ccncc1)C(C)(C)C (stereo unspecified) [pinacidil],,inactive: -1.16,
CC(N/C(=N/C#N)Nc1ccncc1)C(C)(C)C (stereo unspecified) [Pinacidil monohydrate],inactive: 1.1,,active: 6.56
O=C(O)CCc1ccc(S(=O)(=O)CCc2c(CCNS(=O)(=O)Cc3ccccc3C(F)(F)F)n(C(c3ccccc3)c3ccccc3)c3ccc(Cl)cc23)cc1,inactive: -1.42,inactive: -0.468,inactive: 0.337
c1ccc(NCc2nc3ccccc3[nH]2)cc1,inactive: 0.00372,inactive: 3.85,inactive: 0.206
CC(C)NNC(=O)c1ccncc1,inactive: 2.61,inactive: -1.09,inactive: -1.71
CC[n+]1c(/C=C/c2ccc(N3CCCC3)cc2)cccc1/C=C/c1ccc(N2CCCC2)cc1,inactive: -1.29,inactive: 1.95,inactive: 3.73
O=C(O)c1cn(C2CC2)c2cc(N3CCOCC3)c(F)cc2c1=O,inactive: 0.759,inactive: -0.469,inactive: -0.218
C/C(=C/CCC1(C)C2CC3C(C2)C31C)CO (stereo not drawn) [alpha-Santalol],inactive: 0.492,inactive: -0.843,inactive: -0.343
COc1cc(OC)c2c(=O)[nH]c(-c3cc(C)c(OCCO)c(C)c3)nc2c1 [Apabetalone],inactive: -0.897,inactive: 1.72,inactive: -0.49
CC1OC2(CCCCC2Oc2cccc(Cl)c2)NC1=O (stereo unspecified),inactive: -1,inactive: -1.9,inactive: -0.613
CCc1nc(N)nc(N)c1-c1ccc(Cl)c(Cl)c1,inactive: -2.12,inactive: -1.2,inactive: -1.37
O=c1cc(NCCCN[C@@H]2CCOc3c(Br)cc(Br)cc32)[nH]c2ccsc12,inactive: -0.998,inactive: -0.577,inactive: -0.826
CC(C)(C)C(=O)NNC(=O)/C=C\n1cnc(-c2cc(C(F)(F)F)cc(C(F)(F)F)c2)n1,inactive: 1.03,inactive: -1.08,inactive: -0.944
